These are yes or no findings as the source states them, for the method shown. In cells and extracts the contact can be indirect. Here binding means that the protein was enriched with, or labelled near, the bait; the list need not be complete.

Amino acid sequences for entries named in this document (tags omitted). Residues count along the entry.
UniProt O95292, residues 7-124: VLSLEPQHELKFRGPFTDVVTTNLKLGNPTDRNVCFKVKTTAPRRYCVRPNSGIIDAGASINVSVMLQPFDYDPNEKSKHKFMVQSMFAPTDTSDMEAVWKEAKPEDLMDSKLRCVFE
UniProt O14965: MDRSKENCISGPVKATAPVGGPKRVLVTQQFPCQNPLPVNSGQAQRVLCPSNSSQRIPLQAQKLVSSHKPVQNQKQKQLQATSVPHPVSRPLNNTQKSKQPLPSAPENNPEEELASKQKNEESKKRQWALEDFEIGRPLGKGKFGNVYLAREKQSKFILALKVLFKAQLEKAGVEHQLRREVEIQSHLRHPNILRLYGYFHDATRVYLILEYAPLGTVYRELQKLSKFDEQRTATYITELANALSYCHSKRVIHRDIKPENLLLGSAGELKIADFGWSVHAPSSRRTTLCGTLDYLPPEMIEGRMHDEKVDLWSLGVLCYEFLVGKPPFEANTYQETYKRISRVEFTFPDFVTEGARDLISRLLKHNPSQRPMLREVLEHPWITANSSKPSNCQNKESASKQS
UniProt Q96GD4: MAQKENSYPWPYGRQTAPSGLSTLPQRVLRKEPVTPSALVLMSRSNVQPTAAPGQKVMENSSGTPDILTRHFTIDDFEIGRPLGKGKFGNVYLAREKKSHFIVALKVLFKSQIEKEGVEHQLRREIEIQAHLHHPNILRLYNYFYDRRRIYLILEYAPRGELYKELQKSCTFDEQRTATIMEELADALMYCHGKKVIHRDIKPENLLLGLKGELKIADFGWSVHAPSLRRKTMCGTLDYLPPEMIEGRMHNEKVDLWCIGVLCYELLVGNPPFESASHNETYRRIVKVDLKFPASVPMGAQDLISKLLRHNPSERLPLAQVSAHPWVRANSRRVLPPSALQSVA
UniProt Q8WYP5: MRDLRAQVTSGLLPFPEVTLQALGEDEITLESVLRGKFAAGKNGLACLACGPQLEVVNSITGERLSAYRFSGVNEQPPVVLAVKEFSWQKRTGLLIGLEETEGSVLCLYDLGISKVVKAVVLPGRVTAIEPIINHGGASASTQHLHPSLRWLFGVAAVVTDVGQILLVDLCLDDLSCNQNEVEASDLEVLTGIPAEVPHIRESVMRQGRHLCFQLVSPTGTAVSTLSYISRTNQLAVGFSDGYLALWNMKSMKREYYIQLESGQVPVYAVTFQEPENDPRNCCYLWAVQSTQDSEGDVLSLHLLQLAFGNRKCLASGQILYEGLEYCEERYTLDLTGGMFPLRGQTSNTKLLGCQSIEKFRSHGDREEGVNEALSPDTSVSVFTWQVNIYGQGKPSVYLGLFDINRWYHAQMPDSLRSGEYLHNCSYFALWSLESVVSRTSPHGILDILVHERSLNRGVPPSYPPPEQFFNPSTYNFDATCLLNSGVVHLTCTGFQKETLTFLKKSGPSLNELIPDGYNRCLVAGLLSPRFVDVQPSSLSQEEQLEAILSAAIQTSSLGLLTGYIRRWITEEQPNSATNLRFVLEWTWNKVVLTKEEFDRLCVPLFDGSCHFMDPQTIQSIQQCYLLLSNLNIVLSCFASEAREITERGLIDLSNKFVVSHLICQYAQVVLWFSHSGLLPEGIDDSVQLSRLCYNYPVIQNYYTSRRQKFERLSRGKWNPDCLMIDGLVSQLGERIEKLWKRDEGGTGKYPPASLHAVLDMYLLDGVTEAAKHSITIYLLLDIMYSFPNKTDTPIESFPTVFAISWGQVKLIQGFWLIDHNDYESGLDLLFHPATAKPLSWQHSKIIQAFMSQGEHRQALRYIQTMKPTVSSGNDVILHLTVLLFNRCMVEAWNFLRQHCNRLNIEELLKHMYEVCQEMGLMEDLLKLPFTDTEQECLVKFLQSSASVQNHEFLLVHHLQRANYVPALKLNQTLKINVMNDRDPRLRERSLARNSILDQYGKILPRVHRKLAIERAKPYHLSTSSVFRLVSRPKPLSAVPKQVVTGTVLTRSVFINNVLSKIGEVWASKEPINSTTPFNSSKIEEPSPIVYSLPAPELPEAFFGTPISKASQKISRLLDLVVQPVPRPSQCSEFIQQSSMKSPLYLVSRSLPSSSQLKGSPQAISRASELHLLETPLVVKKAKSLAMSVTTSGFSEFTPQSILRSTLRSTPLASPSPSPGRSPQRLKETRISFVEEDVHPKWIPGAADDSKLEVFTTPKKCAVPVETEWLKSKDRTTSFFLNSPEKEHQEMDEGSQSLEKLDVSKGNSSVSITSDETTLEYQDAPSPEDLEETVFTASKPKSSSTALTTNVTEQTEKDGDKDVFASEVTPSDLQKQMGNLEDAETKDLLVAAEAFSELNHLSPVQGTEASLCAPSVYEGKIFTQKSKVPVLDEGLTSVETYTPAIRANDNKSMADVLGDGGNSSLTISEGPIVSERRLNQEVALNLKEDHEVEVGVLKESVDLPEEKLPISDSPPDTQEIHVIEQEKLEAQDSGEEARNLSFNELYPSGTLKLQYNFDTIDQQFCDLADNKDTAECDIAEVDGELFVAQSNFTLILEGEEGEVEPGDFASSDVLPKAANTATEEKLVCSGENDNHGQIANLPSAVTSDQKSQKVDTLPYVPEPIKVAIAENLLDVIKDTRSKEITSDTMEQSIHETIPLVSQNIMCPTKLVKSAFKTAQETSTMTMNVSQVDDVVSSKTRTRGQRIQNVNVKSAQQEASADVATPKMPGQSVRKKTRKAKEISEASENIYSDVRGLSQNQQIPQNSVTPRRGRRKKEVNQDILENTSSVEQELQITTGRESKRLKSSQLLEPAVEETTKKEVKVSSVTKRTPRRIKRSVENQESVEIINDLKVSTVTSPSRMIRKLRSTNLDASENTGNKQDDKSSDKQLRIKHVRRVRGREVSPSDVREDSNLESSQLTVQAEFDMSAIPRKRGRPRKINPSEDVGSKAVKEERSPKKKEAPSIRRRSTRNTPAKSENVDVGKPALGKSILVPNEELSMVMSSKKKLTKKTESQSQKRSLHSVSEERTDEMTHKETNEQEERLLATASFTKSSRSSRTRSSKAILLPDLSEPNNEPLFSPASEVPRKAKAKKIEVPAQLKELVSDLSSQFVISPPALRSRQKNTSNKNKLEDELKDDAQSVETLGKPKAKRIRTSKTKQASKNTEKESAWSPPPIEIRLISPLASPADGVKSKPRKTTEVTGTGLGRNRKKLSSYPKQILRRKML

Sequences and labels used below:
B1: ACBD5 (acyl-CoA binding domain protein), endogenous (protein, UniProt Q5T8D3 1-534)
chain: MFQFHAGSWESWCCCCLIPADRPWDRGQHWQLEMADTRSVHETRFEAAVKVIQSLPKNGSFQPTNEMMLKFYSFYKQATEGPCKLSRPGFWDPIGRYKWDAWSSLGDMTKEEAMIAYVEEMKKIIETMPMTEKVEELLRVIGPFYEIVEDKKSGRSSDITSVRLEKISKCLEDLGNVLTSTPNAKTVNGKAESSDSGAESEEEEAQEEVKGAEQSDNDKKMMKKSADHKNLEVIVTNGYDKDGFVQDIQNDIHASSSLNGRSTEEVKPIDENLGQTGKSAVCIHQDINDDHVEDVTGIQHLTSDSDSEVYCDSMEQFGQEESLDSFTSNNGPFQYYLGGHSSQPMENSGFREDIQVPPGNGNIGNMQVVAVEGKGEVKHGGEDGRNNSGAPHREKRGGETDEFSNVRRGRGHRMQHLSEGTKGRQVGSGGDGERWGSDRGSRGSLNEQIALVLMRLQEDMQNVLQRLQKLETLTALQAKSSTSTLQTAPQPTSQRPSWWPFEMSPGVLTFAIIWPFIAQWLVYLYYQRRRRKLN
B2: RMDN2, endogenous (protein, UniProt Q96LZ7 1-410)
chain: MPYSTNKELILGIMVGTAGISLLLLWYHKVRKPGIAMKLPEFLSLGNTFNSITLQDEIHDDQGTTVIFQERQLQILEKLNELLTNMEELKEEIRFLKEAIPKLEEYIQDELGGKITVHKISPQHRARKRRLPTIQSSATSNSSEEAESEGGYITANTDTEEQSFPVPKAFNTRVEELNLDVLLQKVDHLRMSESGKSESFELLRDHKEKFRDEIEFMWRFARAYGDMYELSTNTQEKKHYANIGKTLSERAINRAPMNGHCHLWYAVLCGYVSEFEGLQNKINYGHLFKEHLDIAIKLLPEEPFLYYLKGRYCYTVSKLSWIEKKMAATLFGKIPSSTVQEALHNFLKAEELCPGYSNPNYMYLAKCYTDLEENQNALKFCNLALLLPTVTKEDKEAQKEMQKIMTSLKR

The experiment deals with GST-VAPB-MSP (wild-type MSP-domain of VAPB fused to a GST-tag) (UniProt O95292). Put plainly: affinity purification with mass spectrometry; GST-MSP or GST on GST-Selector beads, lysates of asynchronous and of mitotic (DME) HeLa cells; eluted proteins analysed by DIA-MS; only the target purified.
In the case of “Aurora kinase A, endogenous (from UniProt O14965 1-403) (enzyme)”, the binding entry is given as “binds”.

Consider “Aurora kinase B, endogenous (from UniProt Q96GD4 1-344) (enzyme)”, for which the binding result is given as “binds”.

Turning to “ELYS (embryonic large molecule derived from yolk sac), endogenous, HeLa (from UniProt Q8WYP5 1-2266)”, the binding result is “binds”.

For the molecule B1, the binding entry is “binds”.

For B2, the binding result was “binds”.

(Values after article PMC11094025.)
